From US20150031872A1, “METHOD FOR SCREENING ANTICANCER DRUGS, AND ANTICANCER DRUG THAT INDUCES CELL DEATH AND USES SUBSTANCE THAT INCREASES GRANZYME M ACTIVITY AS ACTIVE INGREDIENT” (LSIP, LLC, priority 2012, published 2015)
Part of at least one peptide drawing is inferred or uncertain, most often the ends. Peptide text beside a SMILES is read from it. * marks the point of attachment. CH2Cl = ClC*

Key:
Format in all cases: cell-based, human
HL60 cells = test: Viable cell count by tryptan blue method; conditions: inhibitor 0.75 mg/ml along with 5 μM AraC, 14 hours, FIG. 9, P<0.01
Experimental: (§1) Ac-KVPL-CMK, which is an inhibitor specific to granzyme M, was added to the culture medium (5 μM AraC) in an amount making a final concentration of 0.75 mg/ml, and then pre-incubated. To 48 well plates, 5×10^5 of each cell (U937 cells and HL60 cells) were seeded, and culturing was initiated with 200 μl of culture medium per well. Fourteen hours after culturing initiation, the number of viable cells was measured by the tryptan blue method (mixing a cell suspension and tryptan blue solution in 1:1, placing in a hemocytometer, and counting the number of cells using an optical microscope). It should be noted that Ac-KVPL-CMK was synthesized based on the tertiary structure of granzyme M (L. Wu et. al., Structural basis for proteolytic specificity of the human apoptosis-inducing granzyme M, J. Immunol., 2009; 183: 421-429).

U937 cells = test: Viable cell count by tryptan blue method; conditions: inhibitor 0.75 mg/ml along with 5 μM AraC, 14 hours, FIG. 10, P<0.05
Experimental: as §1, with “Ac-KVPL-CMK, which is an inhibitor specific to granzyme M, was added to the culture medium (5 μM AraC) in an amount making a final concentration of 0.75 mg/ml, and then pre-incubated.” left out

Hela cells = test: Viable cell count, recovery of cell death from CDDP; conditions: inhibitor along with CDDP, 24 hours, FIG. 12, P<0.05

**Q.** Which results are given for CC(=O)N[C@@H](CCCCN)C(=O)N[C@H](C(=O)N1CCC[C@H]1C(=O)N[C@@H](CC(C)C)C(=O)CCl)C(C)C [granzyme M-specific inhibitor, Ac-KVPL-CMK] (Ac-KVPL-CH2Cl)?
**A.** viable cell count vs. group with only AraC (HL60 cells): significant recovery of the viable cell count; viable cell count vs. group with only AraC (U937 cells): significant recovery of the viable cell count; viable cell count vs. group with CDDP alone (Hela cells): significant recovery in viable cell count
